The record followed here is article PMC10604809.

Chains of the proteins cited; added tags and fusions are not shown.
UniProt P0A6Y8: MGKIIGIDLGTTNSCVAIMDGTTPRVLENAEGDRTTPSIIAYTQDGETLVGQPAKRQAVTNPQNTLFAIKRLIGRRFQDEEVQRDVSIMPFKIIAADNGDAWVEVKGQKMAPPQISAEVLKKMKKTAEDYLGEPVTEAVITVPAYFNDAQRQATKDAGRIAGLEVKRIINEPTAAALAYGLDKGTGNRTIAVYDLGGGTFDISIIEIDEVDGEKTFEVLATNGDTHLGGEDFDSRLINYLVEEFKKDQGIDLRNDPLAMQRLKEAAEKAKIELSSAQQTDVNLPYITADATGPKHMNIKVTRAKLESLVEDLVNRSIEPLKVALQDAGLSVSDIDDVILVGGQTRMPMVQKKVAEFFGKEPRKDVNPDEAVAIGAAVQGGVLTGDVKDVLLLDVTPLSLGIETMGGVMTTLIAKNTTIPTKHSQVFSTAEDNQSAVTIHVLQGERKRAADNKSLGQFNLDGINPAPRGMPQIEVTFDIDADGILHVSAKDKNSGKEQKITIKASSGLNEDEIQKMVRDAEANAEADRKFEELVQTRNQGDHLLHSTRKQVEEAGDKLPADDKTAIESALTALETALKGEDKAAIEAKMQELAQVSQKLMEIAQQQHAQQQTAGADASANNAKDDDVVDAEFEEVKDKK

The assay addresses cYFP-tagged DnaK (E. coli HSP70) (E. coli) (UniProt P0A6Y8). The experiment in a line: split reporter; nYFP and cYFP fusions co-expressed from one pRSF-Duet1 construct in E. coli cells; YFP fluorescence seen by fluorescence microscopy.

These are yes or no findings as the source states them, for the method shown. Binding seen in cells or lysates may run through a third protein. Some results given as binding are weak or reduced against the parent protein; the word gives no strength. Where a sequence is shown, tags or fusion partners need not be part of it.

B1: nYFP-tagged AtJ3 (Arabidopsis J3 protein, HSP40 family) (protein, UniProt Q94AW8 1-420)
chain: MFGRGPSKKSDNTKFYEILGVPKSASPEDLKKAYKKAAIKNHPDKGGDPEKFKELAQAYEVLSDPEKREIYDQYGEDALKEGMGGGGGGHDPFDIFSSFFGGGPFGGNTSRQRRQRRGEDVVHPLKVSLEDVYLGTMKKLSLSRNALCSKCNGKGSKSGASLKCGGCQGSGMKVSIRQLGPGMIQQMQHACNECKGTGETINDRDRCPQCKGDKVIPEKKVLEVNVEKGMQHSQKITFEGQADEAPDTVTGDIVFVLQQKEHPKFKRKGEDLFVEHTLSLTEALCGFQFVLTHLDGRSLLIKSNPGEVVKPDSYKAISDEGMPIYQRPFMKGKLYIHFTVEFPDSLSPDQTKALEAVLPKPSTAQLSDMEIDECEETTLHDVNIEDEMRRKAQAQREAYDDDDEDDDHPGGAQRVQCAQQ
Turning to B1, the binding result is “binds”.
